Values from PubChem BioAssay AID743454 (Peter MacCallum Cancer Centre, 2014)
Test: 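Knock-downs lowering viability or raising caspase 3/7 activity in vorinostat-treated resistant cells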 (primary screen). Cell system: human HCT116-VR colon cancer cells, selected for vorinostat resistance. Knock-down reagent: siRNA pool against human genes, 40 nM siRNA pool. Time to read-out: vorinostat for 24 h, read-out about 72 h after transfection. Conditions: vorinostat at 2.5 µM final. Measurement: 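Cell viability by CellTiter-Fluor and caspase 3/7 activity by luminescence, each scaled to mock wells per plate, duplicates averaged, then robust z-scored over all plates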. Reading the numbers: viability robust z-score: higher = more viable cells than screen typical; caspase robust z-score: higher = more caspase 3/7 activity than screen typical. Active means: 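a knock-down is a hit when classed RV1 or RV2 for lowered viability, or CA1 or CA2 for caspase activation; those lethal without drug were dropped; hits were retested singly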.
This is one part, drawn at random, of about 18,000 deposited reagents. Over the whole deposit, 450 (2.5%) got an active call. 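Single biological run; no consistent viability z cut-off exists, so the class columns, not z-scores, define the calls.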

After knock-down of MX2 the results were viability hit class no change; caspase hit class no change; viability robust z-score -3.04; caspase robust z-score 1.46; inactive.
PRSS55 scored viability hit class no change; caspase hit class no change; viability robust z-score 0.4; caspase robust z-score 1.84; inactive.
Depletion of HELZ came out at: viability hit class no change; caspase hit class no change; viability robust z-score 0.32; caspase robust z-score 0.93; inactive.
After knock-down of RAD17 the results were viability hit class no change; caspase hit class no change; viability robust z-score 1.08; caspase robust z-score -0.45; inactive.
For DLX5 the deposit lists viability hit class no change; caspase hit class no change; viability robust z-score 0.97; caspase robust z-score -0.5; inactive.
After knock-down of ADIPOQ the results were viability hit class no change; caspase hit class no change; viability robust z-score 1.79; caspase robust z-score 0.03; inactive.
Silencing of OR8J1 resulted in: viability hit class no change; caspase hit class no change; viability robust z-score 1.21; caspase robust z-score 0.74; inactive.
With knock-down of SPP2, the record shows viability hit class no change; caspase hit class no change; viability robust z-score 0.1; caspase robust z-score 0.82; inactive.
With knock-down of METTL25B the results were viability hit class no change; caspase hit class no change; viability robust z-score -0.13; caspase robust z-score -0.89; inactive.
PHC3 scored viability hit class no change; caspase hit class no change; viability robust z-score -0.3; caspase robust z-score -0.78; inactive.
Against CLDN15 the deposit lists viability hit class no change; caspase hit class no change; viability robust z-score 0.11; caspase robust z-score 0.87; inactive.
After knock-down of ALG14, the screen gave viability hit class no change; caspase hit class no change; viability robust z-score 0.58; caspase robust z-score -0.79; inactive.

Reformatted: 2 of the entries above.
{"gene knocked down": "RAD17", "viability hit class": "no change", "caspase hit class": "no change", "viability robust z-score": 1.08, "caspase robust z-score": -0.45, "Outcome": "inactive"}
{"gene knocked down": "DLX5", "viability hit class": "no change", "caspase hit class": "no change", "viability robust z-score": 0.97, "caspase robust z-score": -0.5, "Outcome": "inactive"}
